Test results from the supplement of paper PMC10849652.
Some of the results follow.

Amino acid sequences for entries named in this document (tags omitted). A change or cut given only in a name is not applied to a line headed by its entry.
UniProt O75648: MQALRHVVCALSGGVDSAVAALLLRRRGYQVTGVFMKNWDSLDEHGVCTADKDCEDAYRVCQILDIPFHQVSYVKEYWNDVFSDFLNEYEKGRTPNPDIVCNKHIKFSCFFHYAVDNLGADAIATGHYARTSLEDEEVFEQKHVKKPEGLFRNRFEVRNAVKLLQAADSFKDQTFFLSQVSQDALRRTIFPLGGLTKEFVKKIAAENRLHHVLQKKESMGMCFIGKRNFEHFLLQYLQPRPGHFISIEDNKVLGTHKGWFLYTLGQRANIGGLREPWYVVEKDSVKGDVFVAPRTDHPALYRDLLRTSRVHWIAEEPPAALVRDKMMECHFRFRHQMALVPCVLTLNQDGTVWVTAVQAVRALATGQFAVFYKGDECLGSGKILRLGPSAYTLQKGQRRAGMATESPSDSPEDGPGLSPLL
UniProt Q12933: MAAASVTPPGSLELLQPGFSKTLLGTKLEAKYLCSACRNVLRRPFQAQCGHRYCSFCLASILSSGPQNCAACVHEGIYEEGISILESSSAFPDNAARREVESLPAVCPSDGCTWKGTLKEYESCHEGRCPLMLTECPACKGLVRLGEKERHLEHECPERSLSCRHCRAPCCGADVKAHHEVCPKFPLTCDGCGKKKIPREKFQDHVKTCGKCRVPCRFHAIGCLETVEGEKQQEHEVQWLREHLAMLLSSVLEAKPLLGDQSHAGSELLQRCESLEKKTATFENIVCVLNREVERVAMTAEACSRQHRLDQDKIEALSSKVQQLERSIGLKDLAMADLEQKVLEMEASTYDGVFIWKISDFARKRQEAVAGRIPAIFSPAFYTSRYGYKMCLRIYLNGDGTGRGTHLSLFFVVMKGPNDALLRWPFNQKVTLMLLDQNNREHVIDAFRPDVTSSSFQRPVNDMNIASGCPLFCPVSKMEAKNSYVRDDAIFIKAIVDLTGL
UniProt Q15643: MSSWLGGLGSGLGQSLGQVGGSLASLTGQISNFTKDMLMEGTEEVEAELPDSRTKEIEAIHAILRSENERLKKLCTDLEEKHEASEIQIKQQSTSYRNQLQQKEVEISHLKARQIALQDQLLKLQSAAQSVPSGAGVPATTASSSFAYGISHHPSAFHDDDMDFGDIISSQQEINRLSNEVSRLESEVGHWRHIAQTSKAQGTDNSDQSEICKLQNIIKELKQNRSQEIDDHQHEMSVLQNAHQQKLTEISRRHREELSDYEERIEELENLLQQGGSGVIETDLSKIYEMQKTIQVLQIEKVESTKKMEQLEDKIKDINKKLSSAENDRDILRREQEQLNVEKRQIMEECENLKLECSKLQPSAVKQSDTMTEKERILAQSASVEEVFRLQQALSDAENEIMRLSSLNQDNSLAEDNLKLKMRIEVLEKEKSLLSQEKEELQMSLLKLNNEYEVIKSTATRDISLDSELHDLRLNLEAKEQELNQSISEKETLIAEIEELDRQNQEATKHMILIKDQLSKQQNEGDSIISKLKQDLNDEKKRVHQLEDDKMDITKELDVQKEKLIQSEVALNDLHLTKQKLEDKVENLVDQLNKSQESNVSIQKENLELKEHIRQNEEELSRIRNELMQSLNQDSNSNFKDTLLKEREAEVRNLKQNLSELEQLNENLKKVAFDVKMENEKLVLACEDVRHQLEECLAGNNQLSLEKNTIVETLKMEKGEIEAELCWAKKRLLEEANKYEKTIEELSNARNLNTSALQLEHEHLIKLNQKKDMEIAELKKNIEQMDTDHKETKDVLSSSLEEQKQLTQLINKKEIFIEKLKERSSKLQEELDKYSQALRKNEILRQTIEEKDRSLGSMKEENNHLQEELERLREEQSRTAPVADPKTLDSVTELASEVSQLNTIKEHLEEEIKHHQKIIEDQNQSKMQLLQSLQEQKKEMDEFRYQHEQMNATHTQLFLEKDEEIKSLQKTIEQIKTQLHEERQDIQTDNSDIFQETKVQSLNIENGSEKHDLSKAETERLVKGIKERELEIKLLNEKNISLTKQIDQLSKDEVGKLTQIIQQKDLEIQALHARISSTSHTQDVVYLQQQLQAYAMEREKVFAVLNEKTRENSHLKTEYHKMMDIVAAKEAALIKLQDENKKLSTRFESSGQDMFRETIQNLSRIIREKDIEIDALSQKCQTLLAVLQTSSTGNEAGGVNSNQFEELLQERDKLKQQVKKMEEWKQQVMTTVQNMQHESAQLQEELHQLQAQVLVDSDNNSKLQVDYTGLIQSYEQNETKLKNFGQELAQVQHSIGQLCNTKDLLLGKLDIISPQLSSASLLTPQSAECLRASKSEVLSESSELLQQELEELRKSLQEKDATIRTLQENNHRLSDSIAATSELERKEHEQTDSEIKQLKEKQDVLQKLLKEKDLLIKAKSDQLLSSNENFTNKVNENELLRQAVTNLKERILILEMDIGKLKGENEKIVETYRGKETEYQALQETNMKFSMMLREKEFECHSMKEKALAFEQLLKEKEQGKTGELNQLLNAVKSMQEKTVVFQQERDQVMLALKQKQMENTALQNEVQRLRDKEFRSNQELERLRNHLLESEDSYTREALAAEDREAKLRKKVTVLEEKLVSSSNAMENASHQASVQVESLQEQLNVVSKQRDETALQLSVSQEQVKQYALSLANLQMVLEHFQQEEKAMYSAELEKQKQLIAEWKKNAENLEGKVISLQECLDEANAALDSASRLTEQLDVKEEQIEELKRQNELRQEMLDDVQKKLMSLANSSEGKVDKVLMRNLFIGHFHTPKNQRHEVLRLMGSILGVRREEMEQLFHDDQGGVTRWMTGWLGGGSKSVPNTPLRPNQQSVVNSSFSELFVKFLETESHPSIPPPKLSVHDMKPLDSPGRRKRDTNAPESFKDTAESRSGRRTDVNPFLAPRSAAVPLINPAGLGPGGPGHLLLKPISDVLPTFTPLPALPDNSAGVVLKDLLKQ
UniProt O95801: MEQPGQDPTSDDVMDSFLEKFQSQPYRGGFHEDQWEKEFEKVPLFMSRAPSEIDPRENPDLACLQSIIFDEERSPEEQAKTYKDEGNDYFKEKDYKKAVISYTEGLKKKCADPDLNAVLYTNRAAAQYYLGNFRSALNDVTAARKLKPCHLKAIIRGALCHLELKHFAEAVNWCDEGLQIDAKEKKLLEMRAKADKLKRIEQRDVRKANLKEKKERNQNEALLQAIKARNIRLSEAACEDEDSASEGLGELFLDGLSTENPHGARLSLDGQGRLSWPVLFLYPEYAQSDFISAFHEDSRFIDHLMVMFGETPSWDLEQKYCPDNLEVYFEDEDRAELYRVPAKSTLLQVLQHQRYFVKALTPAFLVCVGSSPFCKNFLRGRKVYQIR
UniProt Q6NXR4: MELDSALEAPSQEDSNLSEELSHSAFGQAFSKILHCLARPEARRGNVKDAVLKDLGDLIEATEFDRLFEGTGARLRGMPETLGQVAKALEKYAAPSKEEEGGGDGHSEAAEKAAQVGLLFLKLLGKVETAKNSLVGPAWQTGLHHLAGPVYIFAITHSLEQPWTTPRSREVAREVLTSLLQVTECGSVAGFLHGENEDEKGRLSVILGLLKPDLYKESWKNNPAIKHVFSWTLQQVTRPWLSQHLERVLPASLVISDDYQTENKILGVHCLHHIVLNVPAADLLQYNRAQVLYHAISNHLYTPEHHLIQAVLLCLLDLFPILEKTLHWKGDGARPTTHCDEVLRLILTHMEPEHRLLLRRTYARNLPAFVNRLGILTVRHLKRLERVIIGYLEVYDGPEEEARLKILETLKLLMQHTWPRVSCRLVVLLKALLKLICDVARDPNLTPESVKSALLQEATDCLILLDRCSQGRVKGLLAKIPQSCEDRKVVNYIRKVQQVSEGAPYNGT
UniProt O14545: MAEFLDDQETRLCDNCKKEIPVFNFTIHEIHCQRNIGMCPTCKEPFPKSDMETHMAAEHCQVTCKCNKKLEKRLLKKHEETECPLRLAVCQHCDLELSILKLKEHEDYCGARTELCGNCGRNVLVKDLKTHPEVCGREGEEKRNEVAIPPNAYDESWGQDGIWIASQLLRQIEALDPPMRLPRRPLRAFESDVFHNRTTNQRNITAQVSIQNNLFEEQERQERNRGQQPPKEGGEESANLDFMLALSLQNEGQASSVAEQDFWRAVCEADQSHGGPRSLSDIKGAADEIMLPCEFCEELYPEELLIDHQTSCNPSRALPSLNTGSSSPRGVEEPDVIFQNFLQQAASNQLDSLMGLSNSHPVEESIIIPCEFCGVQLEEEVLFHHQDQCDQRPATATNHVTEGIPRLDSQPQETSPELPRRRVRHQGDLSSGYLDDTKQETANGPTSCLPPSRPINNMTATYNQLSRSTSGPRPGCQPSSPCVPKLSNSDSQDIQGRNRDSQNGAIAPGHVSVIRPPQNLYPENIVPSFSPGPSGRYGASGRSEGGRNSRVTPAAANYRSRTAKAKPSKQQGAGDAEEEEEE
UniProt Q8TEL6: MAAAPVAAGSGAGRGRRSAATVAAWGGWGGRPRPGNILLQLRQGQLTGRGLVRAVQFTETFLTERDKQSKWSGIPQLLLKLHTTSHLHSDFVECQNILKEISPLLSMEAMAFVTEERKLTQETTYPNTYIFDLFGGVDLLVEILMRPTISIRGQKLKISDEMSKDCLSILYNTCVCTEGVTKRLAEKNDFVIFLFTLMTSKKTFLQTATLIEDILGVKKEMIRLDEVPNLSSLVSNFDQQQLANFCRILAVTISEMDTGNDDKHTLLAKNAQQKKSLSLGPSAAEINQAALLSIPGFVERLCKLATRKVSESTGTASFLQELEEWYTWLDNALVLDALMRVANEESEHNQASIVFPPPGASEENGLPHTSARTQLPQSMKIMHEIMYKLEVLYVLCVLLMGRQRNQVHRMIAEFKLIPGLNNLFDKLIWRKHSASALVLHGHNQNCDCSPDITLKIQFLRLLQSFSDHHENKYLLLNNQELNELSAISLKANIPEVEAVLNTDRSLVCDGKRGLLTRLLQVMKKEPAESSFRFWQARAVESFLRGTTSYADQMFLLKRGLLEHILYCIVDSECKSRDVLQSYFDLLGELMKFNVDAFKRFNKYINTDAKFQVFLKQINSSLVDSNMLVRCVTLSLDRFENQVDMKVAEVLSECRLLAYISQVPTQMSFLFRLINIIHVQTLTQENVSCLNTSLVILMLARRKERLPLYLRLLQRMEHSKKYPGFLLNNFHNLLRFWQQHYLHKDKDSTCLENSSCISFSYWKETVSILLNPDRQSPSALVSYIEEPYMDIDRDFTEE
UniProt Q8NG11: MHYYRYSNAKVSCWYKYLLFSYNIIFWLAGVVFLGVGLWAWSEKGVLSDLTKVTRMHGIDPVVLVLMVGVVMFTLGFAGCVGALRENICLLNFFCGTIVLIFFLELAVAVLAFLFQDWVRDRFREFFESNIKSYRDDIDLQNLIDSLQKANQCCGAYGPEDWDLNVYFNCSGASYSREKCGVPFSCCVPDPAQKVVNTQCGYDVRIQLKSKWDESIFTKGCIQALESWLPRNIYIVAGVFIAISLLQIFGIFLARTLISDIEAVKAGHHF
UniProt Q7Z6J9: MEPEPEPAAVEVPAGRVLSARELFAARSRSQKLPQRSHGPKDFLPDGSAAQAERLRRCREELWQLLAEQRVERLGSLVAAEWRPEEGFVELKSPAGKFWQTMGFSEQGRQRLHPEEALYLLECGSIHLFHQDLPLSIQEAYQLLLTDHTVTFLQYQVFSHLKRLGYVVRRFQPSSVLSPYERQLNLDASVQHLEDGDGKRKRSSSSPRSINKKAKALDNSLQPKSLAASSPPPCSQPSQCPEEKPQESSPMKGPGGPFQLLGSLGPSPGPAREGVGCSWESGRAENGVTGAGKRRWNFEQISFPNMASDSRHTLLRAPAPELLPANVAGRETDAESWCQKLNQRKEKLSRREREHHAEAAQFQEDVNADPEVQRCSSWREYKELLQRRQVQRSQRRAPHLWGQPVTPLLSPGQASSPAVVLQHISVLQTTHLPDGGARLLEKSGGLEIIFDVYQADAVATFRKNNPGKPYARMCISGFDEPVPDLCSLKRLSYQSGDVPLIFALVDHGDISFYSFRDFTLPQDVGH
UniProt Q9C035: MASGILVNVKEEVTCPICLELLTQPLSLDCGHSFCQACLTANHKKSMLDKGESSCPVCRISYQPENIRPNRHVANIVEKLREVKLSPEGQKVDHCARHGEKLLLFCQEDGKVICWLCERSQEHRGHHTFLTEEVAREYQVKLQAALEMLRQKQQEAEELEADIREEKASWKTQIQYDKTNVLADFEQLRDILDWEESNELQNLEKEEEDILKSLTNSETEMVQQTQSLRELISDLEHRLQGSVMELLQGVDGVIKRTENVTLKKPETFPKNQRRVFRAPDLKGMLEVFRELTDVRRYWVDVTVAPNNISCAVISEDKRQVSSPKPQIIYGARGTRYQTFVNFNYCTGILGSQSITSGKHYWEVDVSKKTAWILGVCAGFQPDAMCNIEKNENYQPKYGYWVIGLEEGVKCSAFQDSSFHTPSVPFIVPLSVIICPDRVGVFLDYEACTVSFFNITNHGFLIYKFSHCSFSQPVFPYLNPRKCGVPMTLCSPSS

Tests used:
Test in all cases: log2 fold change, soluble protein after heating vs DMSO (PISA); higher = thermal stabilisation; K562 lysate, 10 uM; active = over 0.2 and 3.5 SD of the protein, either way, in both replicates (recomputed)
vemurafenib = compound: CCCS(=O)(=O)Nc1ccc(F)c(C(=O)c2c[nH]c3ncc(-c4ccc(Cl)cc4)cc23)c1F [vemurafenib]
Summary of the method: (§1)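 Values give the log-two fold change in thermal stability against solvent controls, from duplicates. Crude K562 extract at 1 mg/mL protein, made by dounce homogenisation in PBS pH 7.4 with 1 mM MgCl2, was treated with 10 μM compound for 30 min. After 3 min heating across 48°C-58°C, aliquots were pooled, adjusted to 0.5% NP-40 at 4°C and centrifuged at 21,000xg for 90 min. The supernatant was measured by TMTpro 16plex LC-MS/MS with channel sums equalised.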

[1] = compound: CCCS(=O)(=O)Nc1ccc(F)c(C(=O)c2c[nH]c3ncc(Cl)cc23)c1F
Summary of the method: as §1

barasertib = compound: CCN(CCCOc1ccc2c(Nc3cc(CC(=O)Nc4cccc(F)c4)[nH]n3)ncnc2c1)CCOP(=O)(O)O [barasertib]
Summary of the method: as §1

[2] = compound: CC[C@@H]1C(=O)N(C)c2cnc(Nc3ccc(C(=O)NC4CCN(C)CC4)cc3OC)nc2N1C1CCCC1
Summary of the method: as §1

volasertib = compound: CC[C@@H]1C(=O)N(C)c2cnc(Nc3ccc(C(=O)N[C@H]4CC[C@H](N5CCN(CC6CC6)CC5)CC4)cc3OC)nc2N1C(C)C [volasertib]
Summary of the method: as §1

[3] = compound: CCn1c(C(=O)N(C2CC2)C2CC2)cc2c3c(ncn3C)c(Nc3cc(C)n(C)n3)nc21
Summary of the method: as §1

[4] = compound: CCn1cc(-c2ccnc3[nH]c(-c4cccc(CN(C)C)c4)cc23)c(-c2ccc(NC(=O)N(C)C)cc2)n1
Summary of the method: as §1

[5] = compound: CN1CCC(CNc2ccc3ncc(-c4cccc(OC(F)(F)F)c4)n3n2)CC1
Summary of the method: as §1

saracatinib = compound: CN1CCN(CCOc2cc(OC3CCOCC3)c3c(Nc4c(Cl)ccc5c4OCO5)ncnc3c2)CC1 [saracatinib]
Summary of the method: as §1

sotrastaurin = compound: CN1CCN(c2nc(C3=C(c4c[nH]c5ccccc45)C(=O)NC3=O)c3ccccc3n2)CC1 [sotrastaurin]
Summary of the method: as §1

alvocidib = compound: CN1CC[C@H](c2c(O)cc(O)c3c(=O)cc(-c4ccccc4Cl)oc23)[C@H](O)C1 [alvocidib]
Summary of the method: as §1

Tubastatin A = compound: CN1CCc2c(c3ccccc3n2Cc2ccc(C(=O)NO)cc2)C1 [Tubastatin A]
Summary of the method: as §1

[6] = compound: CNC(=O)C1=CC=CC=C1NC2=NC(=NC=C2Cl)NC3=C(C=C(C=C3)N4CCOCC4)OC
Summary of the method: as §1

defactinib = compound: CNC(=O)c1ccc(Nc2ncc(C(F)(F)F)c(NCc3nccnc3N(C)S(C)(=O)=O)n2)cc1 [defactinib]
Summary of the method: as §1

[7] = compound: CNc1nc(-c2ccc3c(N)n[nH]c3c2)cc(N2C[C@@H](C(=O)NC3CCCCC3)CC[C@H]2C)n1
Summary of the method: as §1

encorafenib = compound: COC(=O)N[C@@H](C)CNc1nccc(-c2cn(C(C)C)nc2-c2cc(Cl)cc(NS(C)(=O)=O)c2F)n1 [encorafenib]
Summary of the method: as §1

[8] = compound: COC(=O)[C@H](CCSC)NC(=O)C1=C(C=C(C=C1)NC[C@H](CS)N)C2=CC=CC=C2
Summary of the method: as §1

alisertib = compound: COc1cc(Nc2ncc3c(n2)-c2ccc(Cl)cc2C(c2c(F)cccc2OC)=NC3)ccc1C(=O)O [alisertib]
Summary of the method: as §1

[9] = compound: COc1cc2nc(-c3cc(F)ccc3O)nc(N[C@@H]3CNC[C@H]3C(C)(C)O)c2cc1OC
Summary of the method: as §1

gefitinib = compound: COc1cc2ncnc(Nc3ccc(F)c(Cl)c3)c2cc1OCCCN1CCOCC1 [gefitinib]
Summary of the method: as §1

Measured: log2 fold change

TRMU (UniProt O75648)
inactive: vemurafenib 0.032 | [1] -0.009 | barasertib 0.059 | [2] 0.024 | volasertib -0.037 | [3] -0.023 | [4] 0.13 | [5] 0.046 | saracatinib 0.036 | sotrastaurin 0.034 | alvocidib -0.003 | Tubastatin A -0.042 | [6] -0.021 | defactinib -0.023 | [7] -0.071 | encorafenib 0.051 | [8] -0.028 | alisertib 0.069 | [9] 0.025 | gefitinib -0.029

TRMT10A (UniProt Q8TBZ6)
inactive: vemurafenib 0.005 | [1] -0.025 | barasertib -0.08 | [2] 0.118 | volasertib -0.014 | [3] -0.005 | [4] -0.027 | [5] 0.029 | saracatinib -0.014 | sotrastaurin 0.006 | alvocidib 0.003 | Tubastatin A -0.008 | [6] 0.095 | defactinib -0.01 | [7] 0.09 | encorafenib -0.031 | [8] -0.012 | alisertib 0.015 | [9] -0.021 | gefitinib -0.004

TRAF2 isoform 2 (UniProt Q12933)
inactive: vemurafenib -0.004 | [1] 0.012 | barasertib 0 | [2] 0.072 | volasertib -0.006 | [3] 0.013 | [4] -0.034 | [5] -0.032 | saracatinib -0.011 | sotrastaurin -0.029 | alvocidib -0.006 | Tubastatin A -0.006 | [6] 0.025 | defactinib -0.013 | [7] 0.01 | encorafenib 0.004 | [8] -0.198 | alisertib 0.003 | [9] -0.007 | gefitinib -0.04

TRIP11 (UniProt Q15643)
inactive: vemurafenib 0.042 | [1] 0.028 | barasertib 0.083 | [2] 0.045 | volasertib -0.001 | [3] 0.037 | [4] -0.131 | [5] -0.126 | saracatinib 0 | sotrastaurin 0.027 | alvocidib -0.074 | Tubastatin A 0.017 | [6] 0.048 | defactinib 0.025 | [7] 0.005 | encorafenib 0.103 | [8] -0.087 | alisertib 0.034 | [9] -0.017 | gefitinib -0.014

TSC22D2 (UniProt O75157)
inactive: vemurafenib 0.001 | [1] 0.011 | barasertib -0.005 | [2] -0.029 | volasertib -0.006 | [3] -0.066 | [4] -0.064 | [5] 0.021 | saracatinib 0.151 | sotrastaurin 0.017 | alvocidib -0.011 | Tubastatin A 0.037 | [6] 0.006 | defactinib 0.029 | [7] 0.073 | encorafenib 0.076 | [8] 0.043 | alisertib -0.019 | [9] -0.027 | gefitinib -0.006

TRAPPC2 isoform 3 (UniProt P0DI81)
inactive: vemurafenib 0.048 | [1] 0.035 | barasertib 0.002 | [2] -0.015 | volasertib -0.02 | [3] 0.03 | [4] -0.014 | [5] -0.01 | saracatinib -0.035 | sotrastaurin 0.06 | alvocidib 0.011 | Tubastatin A -0.024 | [6] 0.043 | defactinib -0.042 | [7] -0.137 | encorafenib 0.004 | [8] -0.065 | alisertib -0.071 | [9] -0.022 | gefitinib 0.034

TRAM1 (UniProt Q15629)
inactive: vemurafenib 0.012 | [1] 0.016 | barasertib 0.079 | [2] -0.064 | volasertib 0.027 | [3] -0.076 | [4] -0.059 | [5] -0.13 | saracatinib 0.001 | sotrastaurin 0.023 | alvocidib 0.046 | Tubastatin A -0.099 | [6] -0.056 | defactinib 0.156 | [7] -0.049 | encorafenib 0.056 | [8] -0.058 | alisertib 0.017 | [9] -0.007 | gefitinib -0.02

TTC4 (UniProt O95801)
inactive: vemurafenib 0.004 | [1] 0.05 | barasertib -0.004 | [2] 0.008 | volasertib -0.024 | [3] 0.007 | [4] -0.089 | [5] -0.027 | saracatinib 0.033 | sotrastaurin 0.005 | alvocidib -0.012 | Tubastatin A -0.183 | [6] 0.078 | defactinib 0.004 | [7] 0.003 | encorafenib 0.021 | [8] -0.005 | alisertib 0.008 | [9] -0.017 | gefitinib -0.003

TTI2 (UniProt Q6NXR4)
inactive: vemurafenib -0.009 | [1] 0 | barasertib 0.005 | [2] -0.022 | volasertib -0.048 | [3] -0.004 | [4] 0 | [5] 0.035 | saracatinib 0.037 | sotrastaurin 0.031 | alvocidib -0.006 | Tubastatin A -0.081 | [6] 0.03 | defactinib 0.069 | [7] 0.006 | encorafenib 0.072 | [8] 0.015 | alisertib 0.004 | [9] 0.024 | gefitinib -0.034

TRAFD1 (UniProt O14545)
inactive: vemurafenib -0.015 | [1] 0.078 | barasertib -0.02 | [2] 0.036 | volasertib 0.023 | [3] 0.006 | [4] -0.008 | [5] -0.109 | saracatinib 0.047 | sotrastaurin -0.101 | alvocidib -0.004 | Tubastatin A 0.102 | [6] 0.063 | defactinib 0.005 | [7] -0.011 | encorafenib 0.053 | [8] -0.104 | alisertib 0.009 | [9] -0.038 | gefitinib -0.202

TRPC4AP (UniProt Q8TEL6)
inactive: vemurafenib -0.022 | [1] 0.073 | barasertib 0.065 | [2] 0.03 | volasertib -0.049 | [3] -0.015 | [4] -0.046 | [5] -0.031 | saracatinib 0.032 | sotrastaurin 0.017 | alvocidib -0.024 | Tubastatin A 0.04 | [6] 0.019 | defactinib -0.007 | [7] -0.069 | encorafenib 0.006 | [8] 0.099 | alisertib 0.021 | [9] -0.032 | gefitinib 0.005

TRIM11 (UniProt Q96F44)
inactive: vemurafenib -0.049 | [1] -0.018 | barasertib -0.034 | [2] -0.001 | volasertib -0.043 | [3] 0.022 | [4] 0.024 | [5] 0.009 | saracatinib 0.024 | sotrastaurin -0.009 | alvocidib -0.015 | Tubastatin A -0.021 | [6] 0.037 | defactinib 0.016 | [7] -0.007 | encorafenib 0.029 | [8] 0.053 | alisertib -0.026 | [9] -0.055 | gefitinib 0.004

TSPAN14 (UniProt Q8NG11)
inactive: vemurafenib 0.019 | [1] 0.019 | barasertib 0.077 | [2] -0.045 | volasertib 0.015 | [3] -0.039 | [4] -0.079 | [5] 0.077 | saracatinib -0.02 | sotrastaurin -0.007 | alvocidib -0.035 | Tubastatin A 0.003 | [6] 0.049 | defactinib 0.01 | [7] 0.016 | encorafenib 0.037 | [8] -0.052 | alisertib 0.02 | [9] 0.004 | gefitinib 0.004

TRAPPC5 (UniProt Q8IUR0)
inactive: vemurafenib -0.032 | [1] -0.011 | barasertib 0.004 | [2] -0.103 | volasertib -0.006 | [3] 0.063 | [4] -0.006 | [5] -0.003 | saracatinib 0.003 | sotrastaurin 0.05 | alvocidib 0.021 | Tubastatin A -0.115 | [6] -0.027 | defactinib 0.051 | [7] -0.047 | encorafenib 0.002 | [8] -0.018 | alisertib 0.023 | [9] 0.028 | gefitinib 0.021

TSEN54 (UniProt Q7Z6J9)
inactive: vemurafenib 0.096 | [1] 0.028 | barasertib -0.003 | [2] -0.024 | volasertib -0.038 | [3] 0.001 | [4] -0.023 | [5] 0.023 | saracatinib -0.007 | sotrastaurin -0.037 | alvocidib -0.052 | Tubastatin A -0.155 | [6] 0.001 | defactinib -0.026 | [7] -0.029 | encorafenib 0.01 | [8] 0.138 | alisertib -0.02 | [9] 0.02 | gefitinib -0.266

TRIM5 (UniProt Q9C035)
inactive: vemurafenib 0.03 | [1] 0.083 | barasertib 0.048 | [2] -0.063 | volasertib 0.018 | [3] 0.007 | [4] -0.017 | [5] -0.023 | saracatinib 0.006 | sotrastaurin 0.023 | alvocidib 0.021 | Tubastatin A -0.134 | [6] 0.086 | defactinib -0.04 | [7] -0.031 | encorafenib 0.032 | [8] 0.032 | alisertib 0.121 | [9] -0.105 | gefitinib 0.014
